Data reported in PubChem BioAssay AID540256 (National Center for Advancing Translational Sciences (NCATS), 2011).
The campaign covered roughly 300,000 compounds. About 3,700 (1.2%) were called active. Inconclusive results, whose numbers are uncertain, are shown with a selection of clear calls. The call rests on the fitted dose curve; tested in HEK293 cells. Potencies beside an inconclusive call are fits to weak or partial responses and may not hold up.

Test: qHTS for Inhibitors of binding or entry into cells for Lassa Virus; further: nearly all actives have a fitted effect of over 50% in size
Settings: Lassa virus pseudotype entry inhibition, cell reporter; activity change, negative = inhibition: at 37.9 µM (top of the series) unless noted
On the % scale 0 is the no-effect control and ±100 the full control effect; potency means the concentration at half of the fitted maximal effect.

SMILES | Potency | activity change, negative = inhibition
COc1cccc2c1C(=O)c1c(O)c3c(c(O)c1C2=O)C[C@@](O)(C(C)=O)C[C@@H]3O[C@H]1C[C@H](N)[C@H](O)[C@H](C)O1 | inconclusive: 0.058 µM [inhibitor, full curve, poor fit] | 
CCN(CC)CCN(C(=O)c1ccc2c(c1)CCCC2)c1nc2ccc(C)cc2s1 | inconclusive: 35.5 µM [inhibitor, single point] | 
CCn1cc(CNC(=O)C2CCC(=O)N(CCc3cccc(F)c3)C2)cn1 (stereo unspecified) |  | inactive: 25.1%
Cn1c2ccccc2c2c(C(=O)NCc3ccco3)cn(C3CCCCC3)c(=O)c21 | inconclusive: 29.1 µM [inhibitor, single point] | 
COCCn1c(-c2cccc([N+](=O)[O-])c2)nc2c1c(=O)[nH]c(=O)n2Cc1ccccc1 | inconclusive: 3.16 µM [inhibitor, partial curve] | 
CCN(CC)C(=O)c1sc(NC(=O)C(Sc2ccccc2)c2ccccc2)c(C(=O)OC(C)C)c1C (stereo unspecified) | inconclusive: 28.2 µM [inhibitor, single point] | 
Cc1nn(CCCC(=O)Nc2cccc(C(F)(F)F)c2)c(=O)c2nn(-c3ccccc3)c(C)c12 |  | inactive: 21.7% [at 46.1 µM]
COc1cc(-c2noc(-c3ccccc3C(=O)NCc3ccco3)n2)cc(OC)c1OC | inconclusive: 14.1 µM [inhibitor, partial curve, poor fit] | 
O=C(c1cccs1)N1CCC(c2ccccc2)C1 (stereo unspecified) | inconclusive: 3.26 µM [activator, partial curve, poor fit] | 
CCOC(=O)C1(Cc2cccc(OC)c2)CCN(CC2CC=CCC2)CC1 (stereo unspecified) | inconclusive: 35.5 µM [inhibitor, partial curve, poor fit] | 
CCC(=O)Nc1ccc(/C=C(\C(C)=O)C(=O)c2ccccc2)cc1 |  | inactive: -28%
Cc1ccc2cc(CN(Cc3ccco3)C(=O)C3CCCCC3)c(=O)[nH]c2c1C |  | inactive: -0.164%
O=C(NC1CCN(C(=O)Nc2cccc(Cl)c2)CC1)C1CCCCC1 | inconclusive: 0.891 µM [activator, single point] | 
FC(F)(F)c1nc2ccccc2nc1N/N=C\c1ccccc1 |  | inactive: -1.25%
CNCc1ccccc1OCC(=O)Nc1ccccc1OC | inconclusive: 0.73 µM [inhibitor, full curve, poor fit] | 
N=C1C(c2ccccc2)=C(O)C2CCc3ccccc3N12 (stereo unspecified) | inconclusive: 2.59 µM [activator, full curve, poor fit] | 
C/C(CCc1ccc2c(c1)OCO2)=N\NC(=O)c1ccc(C)cc1C | inconclusive: 8.91 µM [inhibitor, partial curve, poor fit] | 
CC(C)(C)c1cc(-c2csc(Nc3ccccc3)[n+]2Cc2ccc(C(=O)O)cc2)cc(C(C)(C)C)c1O |  | inactive: -19.6%
CCc1ccc(NC(=O)c2[nH]c(C)c(C(C)=O)c2C)cc1 | inconclusive: 2.82 µM [activator, partial curve, poor fit] | 
Cc1ccc(S(=O)(=O)N(CC(=O)NCc2ccccn2)c2ccc(Cl)cc2)cc1 | inconclusive: 0.891 µM [activator, full curve, poor fit] | 
C/C=C/c1ccc(OCCCCN2CCC(C)CC2)c(OC)c1 | inconclusive: 11.2 µM [inhibitor, single point] | 
Cc1ccc2nc(-c3ccccc3)cc(C(=O)N3CCN(c4ccccc4O)CC3)c2c1 | inconclusive: 11.2 µM [inhibitor, partial curve] | 

SMILES | Potency | activity change, negative = inhibition
COc1ccc(N(CC(=O)NCCSc2ccccc2)S(=O)(=O)c2ccccc2)c(OC)c1 | inconclusive: 5.62 µM [inhibitor, full curve, poor fit] | 
Cc1ccc(CSCc2ccc(C(=O)NCCCN3CCOCC3)o2)cc1 | inconclusive: 10 µM [activator, partial curve] | 
COc1ccccc1C(=O)Nc1onc2c1CCCC2 | inconclusive: 3.16 µM [activator, partial curve, poor fit] | 
Cc1ccc(C)c(NC(=O)c2cc(-c3ccccc3)nn2-c2ccccc2)c1 | inconclusive: 12.6 µM [inhibitor, single point] | 
O=C(Cc1ccccc1)NCC(=O)N1CCN(c2ccccc2)CC1 |  | inactive: -4.17%
O=C(C1CCCN(S(=O)(=O)c2ccccc2)C1)N1CCCCCC1 (stereo unspecified) | inconclusive: 23.1 µM [inhibitor, single point] | 
Cc1cc(O)c2c(C)c(CC(=O)N3CCCCC3)c(=O)oc2c1 | inconclusive: 17.8 µM [activator, single point] | 
COc1ccc(-c2noc(-c3nnn(-c4ccc(C(C)C)cc4)c3C)n2)cc1OC |  | inactive: 24.1% [at 46.1 µM]
O=C(O)C1CCCCC1C(=O)NCCc1cccc(Cl)c1 (stereo unspecified) |  | inactive: 19.3%
O=C(Nc1ccccc1)c1ccc2c(O)c(S(=O)(=O)c3ccc(Cl)cc3)c(=O)[nH]c2c1 |  | inactive: 27% [at 46.1 µM]
CC1CCN(S(=O)(=O)c2ccc(NC(=O)CN3CCCCCC3)cc2)CC1 | inconclusive: 15.8 µM [inhibitor, single point] | 
O=C(NCc1ccc(F)cc1)c1ccc2c(c1)nc1n2CCCCC1 |  | inactive: 17.8% [at 46.1 µM]
Cc1ncc(CO)c2c1Oc1nc(-c3ccc(F)cc3)nc(SCc3ccc(F)cc3Cl)c1C2 | inconclusive: 15.8 µM [activator, partial curve, poor fit] | 
COc1ccccc1NC(=S)N(Cc1ccccc1)Cc1ccccn1 | inconclusive: 3.98 µM [inhibitor, single point] | 
COc1ccc(NC(=O)C2=Cc3ccccc3OC2)cc1 | inconclusive: 12.6 µM [inhibitor, partial curve, poor fit] | 
CC[C@H](C)[C@@H]1NC(=O)[C@@H]2CSCCS(=O)(=O)N2C1=O | inconclusive: 7.05 µM [activator, single point] | 
CCOc1ccccc1C(=O)Nc1ccc2nc3c(c(Nc4ccc(OC)c(OC)c4)c2c1)CCCC3 | active: 10 µM | 
O=C(Nc1cccc(C(=O)Nc2ccc(S(=O)(=O)O)c3cc(S(=O)(=O)O)cc(S(=O)(=O)O)c23)c1)Nc1cccc(C(=O)Nc2ccc(S(=O)(=O)O)c3cc(S(=O)(=O)O)cc(S(=O)(=O)O)c23)c1 | inconclusive: 23.1 µM [inhibitor, single point] | 
CN1CCN(c2ccc(S(=O)(=O)N3CCCCC3)cc2NC(=O)/C=C/c2ccc(Cl)c([N+](=O)[O-])c2)CC1 | active: 12.6 µM | 
CC(C)n1nccc1N(Cc1ccc(Br)cc1)S(=O)(=O)c1ccccc1 | inconclusive: 15.8 µM [inhibitor, single point] | 
COc1ccc(N2CCN(c3nc4cc(C)ccc4cc3C=O)CC2)cc1 |  | inactive: -11.9%
COc1ccc(-c2noc(CSc3nc(N)cc(=O)[nH]3)n2)cc1 |  | inactive: -5.2% [at 46.1 µM]

Four entries from above, as labelled records:
O=C(c1cccs1)N1CCC(c2ccccc2)C1 (stereo unspecified)
  Potency: inconclusive: 3.26 µM [activator, partial curve, poor fit]
O=C(NC1CCN(C(=O)Nc2cccc(Cl)c2)CC1)C1CCCCC1
  Potency: inconclusive: 0.891 µM [activator, single point]
Cc1ccc(CSCc2ccc(C(=O)NCCCN3CCOCC3)o2)cc1
  Potency: inconclusive: 10 µM [activator, partial curve]
Cc1ncc(CO)c2c1Oc1nc(-c3ccc(F)cc3)nc(SCc3ccc(F)cc3Cl)c1C2
  Potency: inconclusive: 15.8 µM [activator, partial curve, poor fit]

(list continues)

SMILES | Potency | activity change, negative = inhibition
COc1ccc(N2CCN(c3nccs3)CC2)cc1 | inconclusive: 4.47 µM [inhibitor, single point] | 
Cc1ccc(S(=O)(=O)Nc2cccc3cccnc23)c([N+](=O)[O-])c1 | active: 10 µM | 
O=C(NC1CCCC1)C1CC(=O)N(CCc2ccccc2)C1 (stereo unspecified) | inconclusive: 14.1 µM [activator, single point] | 
N#CC1=C(N)Oc2c(sc3ccccc23)C1c1ccco1 (stereo unspecified) | inconclusive: 35.5 µM [inhibitor, single point] | 
CCOc1ccc2oc(C(=O)N3CC(C)OC(C)C3)c(C)c2c1 (stereo unspecified) | inconclusive: 22.4 µM [inhibitor, single point] | 
FC(F)(F)c1ccc2c(c1)N1CCCC1CN2 (stereo unspecified) |  | inactive: -7.47%
COc1ccc(-c2cc3nccc(-c4cc(Cl)c(C)cc4O)n3n2)cc1 |  | inactive: -28.1% [at 46.1 µM]
COc1ccc(C2CC(c3cccs3)=NN2C(=O)CSc2nc3c(cnn3-c3ccccc3)c(=O)[nH]2)cc1 (stereo unspecified) |  | inactive: 22.7%
Cn1c(SCC(=O)Nc2ccc3c(c2)OCCO3)nnc1-c1ccco1 |  | inactive: 12.1%
CCc1ccccc1NC(=O)COc1ccc2oc(-c3ccc(OC)cc3)cc(=O)c2c1 | inconclusive: 0.631 µM [inhibitor, partial curve, poor fit] | 
NS(=O)(=O)c1ccc(NCc2ccccc2OCc2ccccc2F)cc1 |  | inactive: 2.93%
O=C1CC(c2ccc(O)cc2)Oc2cc(O)cc(O)c21 (stereo unspecified) |  | inactive: -0.248%
O=C(CCCn1c(=S)[nH]c2cc3c(cc2c1=O)OCO3)N1CCN(c2ccccn2)CC1 | inconclusive: 9.2 µM [inhibitor, partial curve, poor fit] | 
Cc1cccc(NC(=S)NC(=O)c2ccc(-c3ccccc3)cc2)n1 | inconclusive: 3.16 µM [activator, partial curve, poor fit] | 
CC(CC(=O)NCc1ccc(Cl)cc1)S(=O)(=O)c1ccc2c(c1)NC(=O)CO2 (stereo unspecified) | inconclusive: 22.4 µM [inhibitor, single point] | 
CN1CCN(C(=O)C2CCCN(c3ncnc4c3nc3n4CCCCC3)C2)CC1 (stereo unspecified) | inconclusive: 12.6 µM [activator, single point] | 
COc1ccc(OC)c(NC(=O)COc2coc(CN3CCCc4ccccc43)cc2=O)c1 |  | inactive: 3.32%
O=c1[nH]c(=S)[nH]c(O)c1/C=C1\C=Nc2ccccc21 | inconclusive: 35.5 µM [inhibitor, single point] | 
COC(=O)C1C(c2ccc(OC)cc2)C(C(=O)OC)S(=O)(=O)C(CCN2CCCCC2)S1(=O)=O (stereo unspecified) | inconclusive: 1.26 µM [inhibitor, single point] | 
CCOc1ccc(/C=N/Nc2cc(=O)n(C)c(=O)n2C)cc1 | inconclusive: 0.355 µM [inhibitor, single point] | 
Cc1ccc(S(=O)(=O)NCC(Nc2cccc(Cl)c2)c2ccccc2)cc1 (stereo unspecified) | inconclusive: 11.2 µM [inhibitor, partial curve, poor fit] | 
O=C(c1cc(-c2ccccc2)on1)N1CCCC1 | inconclusive: 14.6 µM [inhibitor, partial curve, poor fit] | 
